For at least one compound, name, drawing or mass did not settle the structure.
Target: T1, human recombinant DRD3 (Homo sapiens, UniProt P35462)
T1 construct: expressed in transfected cells
Assay: intrinsic activity on cells expressing human recombinant DRD3
Type: cell-based
Conditions: antagonists <0.10, partial agonists 0.2-0.6, full agonists >0.8
From the text: As used above, the term “D3 receptor partial agonist” denotes a compound that forms a complex with DRD3 and that acts as a combined agonist-antagonist, i.e., it induces a physiological response whose intensity is less than that of the natural mediator, dopamine. In vitro, in a cell expressing DRD3, a DRD3 partial agonist produced an active response whose maximum intensity was lower than that produced by dopamine or a by a full agonist, for example quinpirole[(4aR-trans)-4,4a,5,6,7,8,8a,9 octahydro-5-propyl-1H (or 2H)-pyrazolo(3,4-g)quinoline]. A DRD3 partial agonist can also partially prevent the response produced by dopamine or by its full agonists. In vivo, a DRD3 partial agonist produces dopaminergic responses, particularly when dopamine levels are lowered, as is the case with rats with lesions caused by 6-hydroxydopamine or monkeys injected with 1 methyl-4-phenyl-1,2,3,6-tetrahydropyridine (MPTP). Moreover, a DRD3 partial agonist can act as an antagonist in vivo, particularly when DRD3 is subject to sustained dopamine stimulation.
The activity of derivatives of formula 1 as DRD3 ligands, modulators of the activity of DRD3 according to the invention, was evaluated on cells expressing human recombinant DRD3. […] These same compounds show an apparent affinity for the dopamine D2 receptor that is 100 to 500 times weaker. […]

Amino acid sequences for entries named in this document (tags omitted).
UniProt P35462, whole entry: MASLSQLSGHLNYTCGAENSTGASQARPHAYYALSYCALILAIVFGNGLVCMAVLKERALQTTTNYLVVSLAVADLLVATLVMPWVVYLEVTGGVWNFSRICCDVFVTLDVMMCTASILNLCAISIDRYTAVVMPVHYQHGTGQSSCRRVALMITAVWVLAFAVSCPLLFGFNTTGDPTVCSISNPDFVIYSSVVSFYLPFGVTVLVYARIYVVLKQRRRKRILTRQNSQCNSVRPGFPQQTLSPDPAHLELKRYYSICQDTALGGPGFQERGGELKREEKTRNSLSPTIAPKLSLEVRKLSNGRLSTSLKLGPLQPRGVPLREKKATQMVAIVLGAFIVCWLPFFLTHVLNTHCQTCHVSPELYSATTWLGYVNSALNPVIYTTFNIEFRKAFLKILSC

Structure (SMILES): COc1ccc2c(c1)C=C(C(=O)NCCCCN1CCN(c3cccc(Cl)c3Cl)CC1)CO2 [Example 55, 6-Methoxy-2H-chromene-3-carboxylic acid {4-[4-(2,3-dichlorophenyl)-piperazin-1-yl]-butyl}-amide]
- Intrinsic activity: 0

Source: patent publication US20100029682A1, “NOVEL CHROMENE AND THIOCHROMENE CARBOXAMIDE DERIVATIVES, METHODS FOR PREPARING SAME AND THERAPEUTIC APPLICATIONS OF SAME” (priority 2006, published 2010)
